In assay [1] the target is GFP-CO (Arabidopsis thaliana) (UniProt Q39057). Put plainly: FRET or BRET; FRET-FLIM: GFP lifetime in nuclei of transiently transformed Nicotiana benthamiana leaves; GFP-CO with RFP fusions or free RFP. (In general: BRET reads energy transfer from a luciferase to a nearby fluorophore.)
Assay [2] has as its target T1, TOPLESS fused to the Gal4 DNA-binding domain (BD-TPL) (Arabidopsis thaliana) (UniProt Q94AI7).
T1 sequence: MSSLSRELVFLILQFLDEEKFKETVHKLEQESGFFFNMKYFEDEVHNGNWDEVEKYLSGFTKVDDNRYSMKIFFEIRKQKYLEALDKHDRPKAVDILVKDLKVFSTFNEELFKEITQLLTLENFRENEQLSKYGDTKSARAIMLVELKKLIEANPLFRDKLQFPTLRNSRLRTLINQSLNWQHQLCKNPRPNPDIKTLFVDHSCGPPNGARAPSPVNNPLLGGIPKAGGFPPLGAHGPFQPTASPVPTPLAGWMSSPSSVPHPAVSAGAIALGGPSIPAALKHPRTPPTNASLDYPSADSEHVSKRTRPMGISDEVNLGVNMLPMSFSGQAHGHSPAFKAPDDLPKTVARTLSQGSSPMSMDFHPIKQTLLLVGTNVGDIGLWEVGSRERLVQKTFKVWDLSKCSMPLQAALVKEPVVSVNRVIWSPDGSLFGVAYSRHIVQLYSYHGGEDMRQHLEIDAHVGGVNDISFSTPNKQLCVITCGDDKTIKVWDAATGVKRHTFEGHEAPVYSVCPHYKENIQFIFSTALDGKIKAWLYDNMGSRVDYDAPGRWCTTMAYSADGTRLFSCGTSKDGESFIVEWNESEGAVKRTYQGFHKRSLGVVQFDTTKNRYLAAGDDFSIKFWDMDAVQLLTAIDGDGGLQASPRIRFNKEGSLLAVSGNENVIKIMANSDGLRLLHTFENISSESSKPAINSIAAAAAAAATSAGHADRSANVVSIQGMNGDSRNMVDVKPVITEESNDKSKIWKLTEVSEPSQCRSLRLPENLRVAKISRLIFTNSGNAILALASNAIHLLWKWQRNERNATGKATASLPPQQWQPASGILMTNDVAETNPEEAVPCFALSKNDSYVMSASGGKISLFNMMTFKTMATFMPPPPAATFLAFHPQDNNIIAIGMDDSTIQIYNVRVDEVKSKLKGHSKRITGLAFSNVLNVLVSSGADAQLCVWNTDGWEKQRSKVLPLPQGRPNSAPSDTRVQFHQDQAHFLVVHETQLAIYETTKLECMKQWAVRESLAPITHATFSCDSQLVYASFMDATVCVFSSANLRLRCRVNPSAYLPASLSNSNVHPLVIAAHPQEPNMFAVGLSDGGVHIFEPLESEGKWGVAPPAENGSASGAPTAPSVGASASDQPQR
Briefly: two-hybrid; direct yeast two-hybrid test against TPL; growth on medium lacking histidine with 10 mM 3-aminotriazole.

By UniProt entry, the sequences of proteins in these tests, tags left out. Where a name states a change or a piece, a line headed by the entry shows the natural chain unless it says otherwise.
UniProt Q39057: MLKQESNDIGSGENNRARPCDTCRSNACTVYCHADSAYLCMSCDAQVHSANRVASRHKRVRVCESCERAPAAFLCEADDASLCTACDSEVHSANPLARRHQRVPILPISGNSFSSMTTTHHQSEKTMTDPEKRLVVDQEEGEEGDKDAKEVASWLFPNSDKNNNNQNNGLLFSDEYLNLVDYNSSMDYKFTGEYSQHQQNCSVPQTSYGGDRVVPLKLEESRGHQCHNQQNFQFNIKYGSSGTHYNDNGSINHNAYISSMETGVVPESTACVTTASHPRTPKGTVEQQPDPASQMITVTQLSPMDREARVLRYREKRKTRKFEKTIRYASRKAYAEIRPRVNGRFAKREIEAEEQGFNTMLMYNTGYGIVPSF
UniProt Q9LRM4: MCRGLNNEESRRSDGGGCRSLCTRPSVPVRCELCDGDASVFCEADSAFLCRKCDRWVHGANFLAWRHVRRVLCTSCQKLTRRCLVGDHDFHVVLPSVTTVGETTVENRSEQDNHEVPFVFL
UniProt Q1G3I2: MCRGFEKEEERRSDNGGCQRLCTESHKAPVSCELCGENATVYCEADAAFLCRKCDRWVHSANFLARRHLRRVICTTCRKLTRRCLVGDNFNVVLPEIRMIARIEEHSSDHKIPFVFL

Assay [3] concerns the target MBP-CO (Arabidopsis thaliana) (UniProt Q39057). Put plainly: pull-down; soluble protein fractions of E. coli BL21 lysates mixed; MBP-CO held on amylose-coated magnetic beads; GST fusions detected by immunoblotting. (In general: Immunoblotting shows a protein as a band on a membrane.)
The target of assay [4] is T1, TOPLESS fused to the Gal4 DNA-binding domain (BD-TPL) (Arabidopsis thaliana). Put plainly: yeast three-hybrid; AD-CO and BD-TPL with miP1a expressed from pDRf1-GW; mated strains pJ69-4alpha and YM4271; growth without Trp, Leu, Ura, His with 10 mM 3-aminotriazole.
Assay [5] addresses CONSTANS fused to the Gal4 activation domain (AD-CO) (Arabidopsis thaliana) (UniProt Q39057). Described as above.
The target in assay [6] is GST-miP1aΔPFVFL (Arabidopsis thaliana) (UniProt Q9LRM4). Briefly: pull-down; E. coli cell extracts of MBP-CO and HIS-TPL mixed with GST-miP1a, GST-miP1aΔPFVFL or GST-ZPR3; GST fusions held on anti-GST magnetic beads; HIS-TPL and MBP-CO detected by immunoblotting.
In assay [7] the target is GST-miP1a (Arabidopsis thaliana) (UniProt Q9LRM4). The assay is described as above.
Assay [8] has as its target microProtein 1b fused to the Gal4 DNA-binding domain (BD-miP1b) (Arabidopsis thaliana) (UniProt Q1G3I2). Briefly: two-hybrid; Matchmaker Gold (Clontech), Y2H Gold strain; Gal4 AD fusions of CO or COBB as prey, Gal4 BD fusions of miP1a, miP1b, miP1a* as bait; growth on SD lacking His, Leu, Trp with 10 mM 3-aminotriazole.
Assay [9] addresses microProtein 1a fused to the Gal4 DNA-binding domain (BD-miP1a) (Arabidopsis thaliana) (UniProt Q9LRM4). The description is as above.

These are yes or no findings as the source states them, for the method shown. Binding calls can cover weak binding; strength is not graded here. For some assays here: Tags and fused reporters may be left off the sequences shown. For some assays here: Binding seen in cells or lysates may run through a third protein.

RFP-miP1b (from UniProt Q1G3I2): the binding entry in assay [1] is on record as “binds”.

“miP1aΔPFVFL, two-hybrid fusion tested against TPL (from UniProt Q9LRM4) (domain or fragment)”: the binding result in assay [2] is given as “no binding”. Take GST-miP1a (from UniProt Q9LRM4): the binding entry in [3] is “binds”. Consider “miP1a expressed from pDRf1-GW in the yeast three-hybrid assay (from UniProt Q9LRM4)”, for which the binding result in assay [4] and in [5] was “binds” throughout. Take “miP1a, two-hybrid fusion tested against TPL (from UniProt Q9LRM4)”: the binding result in assay [2] is given as “binds”.

In the case of MBP-CO (from UniProt Q39057 1-373), the binding result in [6] and in assay [7] was “binds” in each case.

Regarding RFP-miP1a (from UniProt Q9LRM4), the binding result in [1] is “binds”. In the case of “CONSTANS fused to the Gal4 activation domain (AD-CO) (from UniProt Q39057 1-373)”, the binding entry in assay [8] and in [9] was “binds” throughout.

Regarding “miP1a*, two-hybrid fusion tested against TPL (Arabidopsis thaliana)”, the binding result in assay [2] was “binds”.

B1: HIS-TPL (protein, UniProt Q94AI7 1-1131)
chain: MSSLSRELVFLILQFLDEEKFKETVHKLEQESGFFFNMKYFEDEVHNGNWDEVEKYLSGFTKVDDNRYSMKIFFEIRKQKYLEALDKHDRPKAVDILVKDLKVFSTFNEELFKEITQLLTLENFRENEQLSKYGDTKSARAIMLVELKKLIEANPLFRDKLQFPTLRNSRLRTLINQSLNWQHQLCKNPRPNPDIKTLFVDHSCGPPNGARAPSPVNNPLLGGIPKAGGFPPLGAHGPFQPTASPVPTPLAGWMSSPSSVPHPAVSAGAIALGGPSIPAALKHPRTPPTNASLDYPSADSEHVSKRTRPMGISDEVNLGVNMLPMSFSGQAHGHSPAFKAPDDLPKTVARTLSQGSSPMSMDFHPIKQTLLLVGTNVGDIGLWEVGSRERLVQKTFKVWDLSKCSMPLQAALVKEPVVSVNRVIWSPDGSLFGVAYSRHIVQLYSYHGGEDMRQHLEIDAHVGGVNDISFSTPNKQLCVITCGDDKTIKVWDAATGVKRHTFEGHEAPVYSVCPHYKENIQFIFSTALDGKIKAWLYDNMGSRVDYDAPGRWCTTMAYSADGTRLFSCGTSKDGESFIVEWNESEGAVKRTYQGFHKRSLGVVQFDTTKNRYLAAGDDFSIKFWDMDAVQLLTAIDGDGGLQASPRIRFNKEGSLLAVSGNENVIKIMANSDGLRLLHTFENISSESSKPAINSIAAAAAAAATSAGHADRSANVVSIQGMNGDSRNMVDVKPVITEESNDKSKIWKLTEVSEPSQCRSLRLPENLRVAKISRLIFTNSGNAILALASNAIHLLWKWQRNERNATGKATASLPPQQWQPASGILMTNDVAETNPEEAVPCFALSKNDSYVMSASGGKISLFNMMTFKTMATFMPPPPAATFLAFHPQDNNIIAIGMDDSTIQIYNVRVDEVKSKLKGHSKRITGLAFSNVLNVLVSSGADAQLCVWNTDGWEKQRSKVLPLPQGRPNSAPSDTRVQFHQDQAHFLVVHETQLAIYETTKLECMKQWAVRESLAPITHATFSCDSQLVYASFMDATVCVFSSANLRLRCRVNPSAYLPASLSNSNVHPLVIAAHPQEPNMFAVGLSDGGVHIFEPLESEGKWGVAPPAENGSASGAPTAPSVGASASDQPQR
Consider B1, for which the binding entry in assay [6] is listed as “no binding”; in [7] it was “binds”.

Source of the values: paper PMC4807768.
